Literature values, collected in patent US20230181532A1, “GRANULES FOR 3D PRINTING TECHNOLOGY” (BOARD OF REGENTS, THE UNIVERSITY OF TEXAS SYSTEM, priority 2020, published 2023).

Conditions: cited from earlier work

COc1ccc2c(c1)c(CC(=O)O)c(C)n2C(=O)c1ccc(Cl)cc1 [IND, Indomethacin]
solubility in acidic pH (acidic pH): practically insoluble | solubility in water (at 35° C. in water): 7 to 9 µg/mL
